According to PMC9462498:
Positions count from the first letter of the chain named. These are yes or no findings as the source states them, for the method shown. In cells and extracts the contact can be indirect. Some binding calls cover weakened binding; strength is not graded here.

Amino acid sequences for entries named in this document (tags omitted). Residues count along the entry.
UniProt P09055, residues 21-798: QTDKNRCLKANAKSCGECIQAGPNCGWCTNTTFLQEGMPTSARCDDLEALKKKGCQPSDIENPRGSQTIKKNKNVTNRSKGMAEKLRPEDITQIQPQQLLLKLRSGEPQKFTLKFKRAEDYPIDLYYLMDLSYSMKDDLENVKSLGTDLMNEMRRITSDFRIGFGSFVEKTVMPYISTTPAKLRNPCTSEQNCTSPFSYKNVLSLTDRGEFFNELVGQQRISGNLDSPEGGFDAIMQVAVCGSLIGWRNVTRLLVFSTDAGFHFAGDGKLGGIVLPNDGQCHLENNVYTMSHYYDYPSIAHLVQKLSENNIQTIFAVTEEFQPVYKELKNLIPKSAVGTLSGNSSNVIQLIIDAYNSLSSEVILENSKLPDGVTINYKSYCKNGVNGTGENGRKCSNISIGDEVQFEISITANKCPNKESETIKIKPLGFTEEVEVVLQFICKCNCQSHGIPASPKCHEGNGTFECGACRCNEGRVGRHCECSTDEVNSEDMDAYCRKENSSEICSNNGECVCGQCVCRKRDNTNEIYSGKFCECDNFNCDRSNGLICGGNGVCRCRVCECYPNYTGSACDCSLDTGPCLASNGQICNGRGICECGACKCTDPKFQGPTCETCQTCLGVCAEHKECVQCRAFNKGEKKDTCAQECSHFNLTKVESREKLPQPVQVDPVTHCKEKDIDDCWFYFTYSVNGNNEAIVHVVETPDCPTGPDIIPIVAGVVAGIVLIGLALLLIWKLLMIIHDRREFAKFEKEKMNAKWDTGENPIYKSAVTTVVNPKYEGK

How the values were obtained:
[1] = molecular target: T1, Semaphorin 7A (Sema7a), wild type, mouse (mouse (endogenous in mouse liver)) (UniProt Q9QUR8); test: co-IP; anti-Sema7a precipitation from liver tissues of 10-week-old male WT and Sema7a^R145W homozygous mice; blots for integrin β1 and PKC-α
T1 sequence (chain, N-glycosylated (~130 kDa band)): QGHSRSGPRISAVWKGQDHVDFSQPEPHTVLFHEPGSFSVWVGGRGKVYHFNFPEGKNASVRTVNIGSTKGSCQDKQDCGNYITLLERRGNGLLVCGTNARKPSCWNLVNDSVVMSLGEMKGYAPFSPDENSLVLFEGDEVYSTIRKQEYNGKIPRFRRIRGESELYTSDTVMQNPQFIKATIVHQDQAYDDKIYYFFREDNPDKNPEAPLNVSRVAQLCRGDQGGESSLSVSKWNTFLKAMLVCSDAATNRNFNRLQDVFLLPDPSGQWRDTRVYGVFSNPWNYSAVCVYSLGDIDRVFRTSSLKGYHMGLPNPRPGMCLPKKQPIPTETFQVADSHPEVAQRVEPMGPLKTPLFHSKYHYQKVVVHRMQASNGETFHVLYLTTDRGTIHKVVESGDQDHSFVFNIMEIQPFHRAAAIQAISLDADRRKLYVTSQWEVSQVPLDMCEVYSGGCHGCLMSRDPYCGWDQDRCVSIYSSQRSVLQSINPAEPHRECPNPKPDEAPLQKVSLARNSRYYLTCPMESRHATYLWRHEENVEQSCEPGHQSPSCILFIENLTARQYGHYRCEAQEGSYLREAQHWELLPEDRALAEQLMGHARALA

[2] = molecular target: T2, Semaphorin 7A R145W mutant (Sema7a^R145W), mouse (mouse (endogenous in mouse liver and primary hepatocytes)) (UniProt Q9QUR8); test: as above
T2 sequence (chain, N-glycosylated (~130 kDa band)): T1 sequence (chain, N-glycosylated (~130 kDa band)) with R101W

binding [1]: binds | binding [2]: binds
Substance: integrin β1, mouse (from UniProt P09055 21-798) (receptor)
